SMILES strings stand for the structures. The whole screen tested about 1,200 compounds, of which fewer than 10 were called active.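 How the source made its calls: active means inhibition reaching a set limit at one or more tested concentrations; inactive means inhibition under that limit at every dose.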 Some of the results follow. Measured potencies and affinities stand elsewhere.

The nature of this experiment: yeast RAM network inhibitors, dose response, S. cerevisiae (AID 1307).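 Further: 0% = DMSO vehicle wells and 100% = 10 µM 1-NA-PP1 control; higher inhibition means more yeast growth since RAM block rescues cells from 5-FOA.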 The conditions noted are these: S. cerevisiae RAM network URA3 reporter, 5-FOA growth OD615, stronger effect = higher value, yeast express analog-sensitive mutant Cbk1 kinase; at 100 µM unless noted.
`COc1ccc(/C=C2\SC(=S)N(C(Cc3ccccc3)C(=O)O)C2=O)cc1` (centres undefined): the max inhibition was inactive: 4.2% [at 50 µM].
For the compound `CCc1ccc(NC(=O)Cn2c(SC)nc3ccccc32)cc1`, the max inhibition was inactive: 1.82% [at 0.196 µM].
To `CC(C)SCCCCOc1ccc2ccccc2c1` belongs inactive: 3.86% [at 12.5 µM].
In the case of `CCOc1ccc(NC(=O)CSc2nnc(-c3ccccc3Cl)n2Cc2ccco2)cc1`, the max inhibition was inactive: 1.32% [at 0.782 µM].
Take `Clc1ccc(-c2nnc(CSc3nnc(-c4cccs4)o3)o2)cc1`: the max inhibition is inactive: 2.52% [at 3.125 µM].
On to `CC(=O)N(CCC(c1ccccc1)c1ccco1)Cc1cccs1` (centres undefined), for which the max inhibition was inactive: 1.77% [at 0.391 µM].
With `COc1ccccc1/C=C(/C(=O)OCC(=O)Nc1ccccc1C(C)C)c1ccccc1`, the max inhibition is inactive: 1.89%.
Consider `O=C1c2ccccc2C(=O)N1CCCCN(C(=O)c1ccc(Cl)s1)c1ccc(Cl)cc1`, for which the max inhibition was inactive: 2.52% [at 50 µM].
As for `COc1cccc(CSc2nc3sc(C)c(C)c3c(=O)n2Cc2ccco2)c1`, the max inhibition was inactive: 5.58% [at 50 µM].
To `CCCCN1C(=O)/C(=C/C=C2/CC(C)(C)CN2C)SC1=S` belongs inactive: 2.79% [at 50 µM]; to `Cc1ccc(N(CCCCN2C(=O)c3ccccc3C2=O)C(=O)c2cccs2)cc1`, inactive: 4.25%; to `CCOC(=O)C1=C(Cc2ccc(OC)cc2)C(=O)c2ccccc2C1=O`, inactive: 3.39% [at 0.391 µM].
On to `Cc1ccc(S(=O)(=O)NCc2ccc3c(c2)cc(C)n3C)cc1`, for which the max inhibition is inactive: 5.29%.
With `N#Cc1nc(Cc2cccc3ccccc23)oc1N1CCCCC1`, the max inhibition is inactive: 2.73% [at 3.125 µM].
Take `O=S(=O)(Nc1ccc(N=Nc2ccc(O)c3ccccc23)cc1)c1ccccc1`: the max inhibition was inactive: 1.77%.
On to `O=C(CSc1nc2ccccc2s1)CSc1nc2ccccc2s1`, for which the max inhibition is inactive: 5.31%.
For `Cc1ccccc1OCC(O)Cn1c2ccccc2c2ccccc21` (centres undefined), the max inhibition is inactive: 6.24%.
Consider `COc1ccc(CCNC(=O)c2ccc(Cl)c(S(=O)(=O)N(C)c3ccccc3)c2)cc1`, for which the max inhibition is inactive: 2.74% [at 6.25 µM].
To `N#Cc1nc(-c2ccc(OCc3ccccc3)cc2)oc1NCc1ccco1` belongs inactive: 18.3%; to `CCN1C(=O)C(CC(=O)Nc2ccc(OC)cc2)N(CCc2ccc(F)cc2)C1=S` (centres undefined), inactive: 2.82%; to `CCCCOc1ccc(C(=O)N/C(=C\c2cccc([N+](=O)[O-])c2)C(=O)OCc2ccco2)cc1`, inactive: 4.99% [at 50 µM].
For `Cc1ccc(Cc2nnc3n(-c4cccc(C)c4)nc(C(=O)c4ccccc4)n3c2=O)cc1`, the max inhibition was inactive: 3.36% [at 50 µM].
To `CC(=O)c1ccc(OC(=O)CCN2c3ccccc3Sc3ccccc32)cc1` belongs inactive: 2.26% [at 0.196 µM]; to `Cc1[nH]c2ccccc2c1/C=C/c1nc2ccccc2c(=O)n1-c1ccc([N+](=O)[O-])cc1`, inactive: 6.44%.
In the case of `COc1ccc(C(Cl)=C(c2ccc(OC)cc2)c2ccc(OC)cc2)cc1`, the max inhibition was inactive: 5.76% [at 50 µM].
As to `COc1ccccc1Nc1nc2c(C)cccc2cc1C#N`, the max inhibition was inactive: 4.2% [at 50 µM].
As to `CS(=O)(=O)Nc1ccc(C(=O)Nc2ccccc2Sc2ccccc2)cc1`, the max inhibition was inactive: 6.21%.
Consider `CCc1cc2c(Sc3nc4ccccc4s3)ncnc2s1`, for which the max inhibition was inactive: 1.8% [at 50 µM].
To `COc1ccc(OC)c(/C=C/C(=O)OCC(=O)Nc2cccc(Oc3ccccc3)c2)c1` belongs inactive: 4.47%; to `COc1ccc(CN2C(=O)c3ccccc3C(/C=N\OCc3ccc(C)cc3)C2=O)cc1` (centres undefined), inactive: 3.05% [at 0.782 µM]; to `CC(CCc1ccccc1)NC(=O)CNC(=S)N(Cc1cccs1)C1CCCC1` (centres undefined), inactive: 3.28%.
For the compound `CCC(=O)Nc1ccccc1C(=O)OCc1ccc(C(=O)c2ccccc2)cc1`, the max inhibition was inactive: 1.55% [at 0.196 µM].
Under `Nc1ccc(C(=O)c2cccs2)cc1[N+](=O)[O-]` stands inactive: 6.93% [at 50 µM].
Take `OC(COCC(F)(F)C(F)(F)C(F)(F)C(F)F)Cn1c2ccc(Cl)cc2c2cc(Cl)ccc21` (centres undefined): the max inhibition was inactive: 4.25% [at 0.391 µM].
For the compound `Cc1cc(Br)ccc1SCC(=O)OCC(=O)NC1CCCC1`, the max inhibition is inactive: 4.08% [at 0.196 µM].
Take `COC(=O)CSc1nc(N2CCCCC2)c2c(c1C#N)CCCC2`: the max inhibition is inactive: 2.41% [at 0.782 µM].
In the case of `Cc1cc(C)c(C)c(S(=O)(=O)N2CCC(C(=O)OCC(=O)N3c4ccccc4NC(=O)C3(C)C)CC2)c1C`, the max inhibition was inactive: 4.49%.
Regarding `Cc1cc(C)c(NC(=O)/C(=C/c2ccccc2)c2ccccc2)c(C)c1`, the max inhibition was inactive: 5.18%.
As to `Cc1cc(C(=O)COc2ccc(Cl)cc2Br)c(C)n1C`, the max inhibition is inactive: 1.08% [at 0.196 µM].
To `CCN(CC)S(=O)(=O)c1cccc(-c2nnc(SCCOc3ccccc3)o2)c1` belongs inactive: 3.36% [at 25 µM].
Consider `CCOC(=O)Cc1csc(NC(=O)c2c(O)c3ccccc3n(CC(C)C)c2=O)n1`, for which the max inhibition was inactive: 2.71%.
Under `CCCCn1c(SCC(=O)Nc2ccccc2C(F)(F)F)nc2ccsc2c1=O` stands inactive: 2.91% [at 25 µM]; under `Cc1oc2ccc(OC(=O)COc3c(F)c(F)c(F)c(F)c3F)cc2c1C(=O)OC(C)C`, inactive: 2.86% [at 6.25 µM]; under `Brc1ccccc1-c1nnc2sc(Cc3ccccc3)nn12`, inactive: 2.46% [at 0.782 µM].
Consider `O=C(c1cnc(-c2ccc(Cl)cc2)s1)c1ccc(Cl)cc1Cl`, for which the max inhibition is inactive: 3.52% [at 50 µM].
On to `CCCCCCCCNC(=O)c1cccnc1SCC(=O)Nc1ccccc1OC`, for which the max inhibition was inactive: 1.89% [at 1.563 µM].
In the case of `CN(c1cccc(NC(=O)CN(c2ccc(F)cc2)S(C)(=O)=O)c1)S(C)(=O)=O`, the max inhibition is inactive: 2.38% [at 0.196 µM].
Under `COc1ccc(O[C@H]2C=C[C@@H](c3ccccc3)O[C@@H]2COC(=O)CC/C(C)=N/O[C@@H](C)c2cc(-c3c(C)cc(C)cc3C)no2)cc1` stands inactive: 4.87% [at 25 µM]; under `CC(C)Oc1ccccc1OCCCCn1cnc2ccccc2c1=O`, inactive: 2.35% [at 6.25 µM].
Take `O=C(OCc1ccccc1)c1cccc(-c2nnc(-c3ccccc3)o2)c1`: the max inhibition was inactive: 3.33% [at 3.125 µM].
As for `COc1cccc(/C=C/C(=O)OCC(=O)Nc2ccccc2Sc2ccccc2)c1`, the max inhibition was inactive: 4.22%.
As for `Cc1ccc(/C=C/C(=O)Nc2ccc(Oc3ccccc3)cc2)o1`, the max inhibition was inactive: 8%.
On to `COc1ccc(C)cc1S(=O)(=O)N(CC(=O)NCc1ccc(Cl)cc1)Cc1ccccc1`, for which the max inhibition is inactive: 2.92% [at 1.563 µM].
To `Cc1ccc(Cl)cc1N1CCN(C(=S)NCCc2ccccc2)CC1` belongs inactive: 3.33% [at 25 µM]; to `CCN(CC)S(=O)(=O)c1ccc(NCC2COc3ccccc3O2)c([N+](=O)[O-])c1` (centres undefined), inactive: 2.77% [at 1.563 µM].
On to `Cc1ccc(/C=C/C2=NN(Cc3ccc(Cl)c(Cl)c3)C(=O)CC2)cc1`, for which the max inhibition is inactive: 3.29%.
Consider `O=C(O)C(Cc1ccccc1)N1C(=O)/C(=C/c2cccs2)SC1=S` (centres undefined), for which the max inhibition was inactive: 1.68% [at 50 µM].
In the case of `Cc1ccc(NC(=O)CSc2nnc(-c3cccs3)n2Cc2ccco2)cc1`, the max inhibition was inactive: 4.32% [at 50 µM].
On to `COC(=O)C1=CN(Cc2cccs2)C=C(C(=O)OC)C1c1cccc(Cl)c1`, for which the max inhibition was inactive: 4.01%.
On to `CCOC(=O)c1ccc(NC(=S)NC(=O)COc2ccccc2)cc1`, for which the max inhibition is inactive: 9.41%.
As to `CCCOc1ccc(/C=N/Nc2ccccc2[N+](=O)[O-])c(OCCC)c1`, the max inhibition is inactive: 6.82%.
Turning to `Cc1ccc(CCC(=O)Nc2ncc(Cc3cc(Cl)ccc3Cl)s2)o1`, the max inhibition is inactive: 3.23% [at 1.563 µM].
Consider `CC(C)[C@H](CN(N=O)[C@@H](Cc1ccccc1)CN(C)N=O)N(CCc1ccccc1)N=O`, for which the max inhibition is inactive: 4.57% [at 50 µM].
Turning to `O=C(Nc1ccc(Oc2ccc3ccccc3c2)cc1)c1ccco1`, the max inhibition was inactive: 4.04%.
Consider `CCC(=O)NC(=S)Nc1ccc(NC(=S)NC(=O)c2ccccc2)cc1`, for which the max inhibition is inactive: 5.34% [at 50 µM].
Under `CCCCC(=O)Nc1cccc(NC(=S)NC(=O)COc2ccccc2Cl)c1` stands inactive: 5.08%; under `COc1cc(-c2nnc(-c3ccccc3)o2)cc(OC)c1OC`, inactive: 2.19% [at 0.196 µM].
Consider `C=CCNC(=O)/C(C#N)=C/c1ccc(OS(=O)(=O)c2ccc(C)cc2)c(OC)c1`, for which the max inhibition was inactive: 2.71%.
For `O=C(NCc1ccccc1)/C(=C/c1ccc(OC(F)F)cc1)c1ccccc1`, the max inhibition was inactive: 2.17% [at 50 µM].
For `CCCc1ccc(/C=C2\C(=O)c3ccccc3C(O)=C2C(=O)OCC)cc1`, the max inhibition was inactive: 3.48% [at 50 µM].
In the case of `CCOC(=O)c1c(C)[nH]c(C(=O)C(C)Sc2ccc(Cl)cc2)c1C` (centres undefined), the max inhibition is inactive: 2.41% [at 12.5 µM].
To `COC(=O)c1scc(C)c1N/N=C(\C)c1ccc(F)cc1F` belongs inactive: 8.43%; to `Cc1ccc(C(=O)/C=C/c2ccc(-c3ccccc3[N+](=O)[O-])o2)cc1`, inactive: 5.66% [at 50 µM].
With `COc1ccc(C2C=C(c3ccc(Br)cc3)Nc3nc(NS(C)(=O)=O)nn32)cc1` (centres undefined), the max inhibition is inactive: 4.33%.
To `COc1ccccc1/C=C/C(=O)OCC(=O)Nc1ccccc1Sc1ccccc1` belongs inactive: 4.13% [setting not given].
For `Cc1ccc(C(c2nnnn2C2CCCC2)N2CCc3ccccc32)cc1` (centres undefined), the max inhibition is inactive: 4.04%.
For `COc1ccc(-n2nc(C(=O)Nc3ccc(OC)c(OC)c3)c3c4ccccc4n(C)c3c2=O)cc1`, the max inhibition is inactive: 10%.
As to `COc1ccc(C(=O)/C=C/Nc2ccc(S(=O)(=O)Nc3ncccn3)cc2)cc1`, the max inhibition was inactive: 7.67%.
Turning to `CC(C)(CNC(=S)NCCc1ccccc1)CNC(=S)NCCc1ccccc1`, the max inhibition is inactive: 4.96%.

The values are drawn from PubChem BioAssay AID1307 (SRMLSC, 2008).
